Among the data in PMC8150775, “Repositioning Azelnidipine as a Dual Inhibitor Targeting CD47/SIRPα and TIGIT/PVR Pathways for Cancer Immuno-Therapy” (Biomolecules, 2021) are binding values, retold here.

In the assay the target is T1, murine CD47 on CHOK1-mCD47 cells (mouse) (UniProt Q61735).
T1 sequence: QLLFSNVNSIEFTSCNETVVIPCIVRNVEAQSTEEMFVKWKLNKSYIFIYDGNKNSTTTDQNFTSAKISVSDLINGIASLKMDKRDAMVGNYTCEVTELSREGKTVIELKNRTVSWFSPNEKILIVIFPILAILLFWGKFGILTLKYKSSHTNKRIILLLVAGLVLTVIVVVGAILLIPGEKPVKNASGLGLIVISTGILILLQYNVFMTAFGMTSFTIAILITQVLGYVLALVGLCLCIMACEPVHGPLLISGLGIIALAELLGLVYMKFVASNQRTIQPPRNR
Put plainly: flow cytometry on cells; blocking assay: Fc-tagged SIRPα or PVR protein, pre-incubated with or without small molecule inhibitor for 30 min at 4 °C, then incubated 30 min with CHOK1-CD47 or CHOK1-TIGIT cells; bound Fc protein detected with PE-conjugated anti-human IgG antibody; positive control without inhibitor; only the binder purified. (In general: A flow cytometer gives signals particle by particle.)

No constants are given. Whether binding was seen depends on the method and setting. Some results given as binding are weak or reduced against the parent protein; the word gives no strength. Where a sequence is shown, tags or fusion partners need not be part of it.

B1: mouse SIRPα protein, Fc-tagged (Fc fusion, UniProt P97797 32-373)
chain: KELKVTQPEKSVSVAAGDSTVLNCTLTSLLPVGPIRWYRGVGPSRLLIYSFAGEYVPRIRNVSDTTKRNNMDFSIRISNVTPADAGIYYCVKFQKGSSEPDTEIQSGGGTEVYVLAKPSPPEVSGPADRGIPDQKVNFTCKSHGFSPRNITLKWFKDGQELHPLETTVNPSGKNVSYNISSTVRVVLNSMDVNSKVICEVAHITLDRSPLRGIANLSNFIRVSPTVKVTQQSPTSMNQVNLTCRAERFYPEDLQLIWLENGNVSRNDTPKNLTKNTDGTYNYTSLFLVNSSAHREDVVFTCQVKHDQQPAITRNHTVLGFAHSSDQGSMQTFPDNNATHNWN
As to B1, the binding entry is given as “binds”.
